According to PMC4210090:
Results are given in words; binding and its absence hold for the method and conditions named. For part of these data: In cells and extracts the contact can be indirect. Some binding calls cover weakened binding; strength is not graded here.

Amino acid sequences for entries named in this document (tags omitted). A change or cut given only in a name is not applied to a line headed by its entry. Residues count along the entry.
UniProt Q9UKV8: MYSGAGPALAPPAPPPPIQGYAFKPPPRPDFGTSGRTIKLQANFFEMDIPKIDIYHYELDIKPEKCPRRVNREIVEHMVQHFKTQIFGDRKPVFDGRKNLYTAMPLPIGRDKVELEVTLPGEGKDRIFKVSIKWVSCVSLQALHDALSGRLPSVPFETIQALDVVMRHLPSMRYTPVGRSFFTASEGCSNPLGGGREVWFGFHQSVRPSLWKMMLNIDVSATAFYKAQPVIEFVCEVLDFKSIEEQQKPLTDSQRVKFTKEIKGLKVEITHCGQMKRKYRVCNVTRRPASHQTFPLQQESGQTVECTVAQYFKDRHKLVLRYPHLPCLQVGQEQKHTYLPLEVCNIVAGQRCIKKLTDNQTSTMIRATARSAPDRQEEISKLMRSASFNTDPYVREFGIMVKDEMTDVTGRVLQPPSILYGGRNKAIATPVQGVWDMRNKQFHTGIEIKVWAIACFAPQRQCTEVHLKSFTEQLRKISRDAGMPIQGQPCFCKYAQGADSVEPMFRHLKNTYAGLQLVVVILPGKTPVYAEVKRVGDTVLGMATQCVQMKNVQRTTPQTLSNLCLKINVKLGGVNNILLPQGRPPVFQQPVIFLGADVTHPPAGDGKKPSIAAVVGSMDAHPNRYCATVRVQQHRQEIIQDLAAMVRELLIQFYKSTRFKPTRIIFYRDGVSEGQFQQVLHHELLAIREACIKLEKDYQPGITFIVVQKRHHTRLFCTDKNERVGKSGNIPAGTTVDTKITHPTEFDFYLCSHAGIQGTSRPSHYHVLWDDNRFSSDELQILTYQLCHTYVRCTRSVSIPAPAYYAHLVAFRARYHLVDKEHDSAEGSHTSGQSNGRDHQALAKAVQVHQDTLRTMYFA
GST fusion of the PIWI domain of Ago2: residues 517-818 of Q9UKV8
UniProt Q13596: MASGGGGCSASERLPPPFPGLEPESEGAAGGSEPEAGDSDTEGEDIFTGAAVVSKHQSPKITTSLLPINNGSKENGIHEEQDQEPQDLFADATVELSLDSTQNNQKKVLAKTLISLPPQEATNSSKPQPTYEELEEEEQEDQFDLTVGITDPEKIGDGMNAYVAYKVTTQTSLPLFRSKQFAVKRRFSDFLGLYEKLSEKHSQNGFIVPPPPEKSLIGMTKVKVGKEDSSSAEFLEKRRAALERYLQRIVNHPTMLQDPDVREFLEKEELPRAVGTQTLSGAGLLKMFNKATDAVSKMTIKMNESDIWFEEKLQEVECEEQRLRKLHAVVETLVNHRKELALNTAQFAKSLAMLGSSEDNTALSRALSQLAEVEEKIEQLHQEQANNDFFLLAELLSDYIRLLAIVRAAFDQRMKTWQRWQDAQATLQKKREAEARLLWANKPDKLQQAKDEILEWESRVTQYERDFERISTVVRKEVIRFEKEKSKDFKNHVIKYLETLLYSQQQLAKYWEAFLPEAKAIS
UniProt Q9QZ81: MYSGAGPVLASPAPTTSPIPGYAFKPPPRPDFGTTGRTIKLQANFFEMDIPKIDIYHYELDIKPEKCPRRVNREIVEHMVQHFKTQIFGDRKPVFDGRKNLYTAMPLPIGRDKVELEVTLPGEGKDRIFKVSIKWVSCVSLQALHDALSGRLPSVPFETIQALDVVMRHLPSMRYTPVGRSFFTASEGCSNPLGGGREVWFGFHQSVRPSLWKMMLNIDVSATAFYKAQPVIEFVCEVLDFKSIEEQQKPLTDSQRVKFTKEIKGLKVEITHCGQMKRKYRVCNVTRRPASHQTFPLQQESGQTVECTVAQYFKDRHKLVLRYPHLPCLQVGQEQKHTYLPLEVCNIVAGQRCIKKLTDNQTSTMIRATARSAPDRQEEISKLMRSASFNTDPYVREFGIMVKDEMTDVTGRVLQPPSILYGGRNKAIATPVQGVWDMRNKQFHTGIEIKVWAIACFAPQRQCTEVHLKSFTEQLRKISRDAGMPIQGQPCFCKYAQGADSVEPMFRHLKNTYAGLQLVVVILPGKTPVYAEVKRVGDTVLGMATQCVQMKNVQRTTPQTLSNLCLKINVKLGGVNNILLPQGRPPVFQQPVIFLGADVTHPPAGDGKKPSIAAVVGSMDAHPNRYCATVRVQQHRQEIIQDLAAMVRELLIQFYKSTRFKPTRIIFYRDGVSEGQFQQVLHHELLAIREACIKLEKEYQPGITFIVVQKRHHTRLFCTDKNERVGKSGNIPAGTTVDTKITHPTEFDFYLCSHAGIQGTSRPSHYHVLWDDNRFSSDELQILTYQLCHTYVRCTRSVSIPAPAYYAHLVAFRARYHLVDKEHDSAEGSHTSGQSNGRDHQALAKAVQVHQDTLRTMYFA

Tests used:
[1] = target: endogenous PICK1 (cultured neurons) (not stated (endogenous in cultured neurons)) (UniProt Q9EP80); assay: co-IP; lysates of cultured neurons immunoprecipitated with anti-PICK1 or control IgG, protein G-sepharose; washed in 0.5% Triton X-100, 150 mM NaCl, 20 mM HEPES pH 7.4; western blotting; also after TTX, Bicuculline or NMDA (chemical LTD) treatment, the interaction being decreased after chemical LTD
[2] = target: GST fusion of the PIWI domain of Ago2 (UniProt Q9UKV8); assay: pull-down; GST fusions of Ago2 truncation mutants incubated with purified his6-PICK1; bound protein detected by western blotting; both purified
GFP-PICK1 = GFP-PICK1 (UniProt Q9EP80); assay: co-IP; HEK293 cell lysates incubated with GFP-trap agarose or blocked agarose beads as control; western blotting with anti-myc or anti-GFP
GST-PICK1 full-length = GST-PICK1 full-length (UniProt Q9EP80); assay: pull-down; GST fusion proteins incubated with HEK293 cell lysate expressing myc-Ago2; bound proteins detected by western blotting with anti-myc or by Coomassie staining; only the target purified
[3] = target: GST-SNX1 (sorting nexin 1) (UniProt Q13596); assay: as above

## endogenous Ago2 (cultured neurons) (from UniProt Q9QZ81 1-860)
[1]
  binding: binds

## his6-PICK1 (from UniProt Q9EP80 1-416)
[2]
  binding: binds

## myc-Ago1 (from UniProt Q9UL18 1-857)
GFP-PICK1
  binding: binds

## myc-Ago2 (from UniProt Q9UKV8 1-859)
GFP-PICK1
  binding: binds
GST-PICK1 full-length
  binding: binds
[3]
  binding: no binding
